In publication doi:10.1101/2020.11.19.389494:
Results are given in words; binding and its absence hold for the method and conditions named.

Molecular target: mouse plexin B2 Rho GTPase binding domain (RBD) (mouse) (UniProt B2RXS4)
Test: crystal structure

binding: no binding
B1: mouse plexin B2 Rho GTPase binding domain (RBD) (domain or fragment, UniProt B2RXS4 1463-1565)
chain: EYAPLTVSVIVQDEGIDAIPVKVLNCDTISQVKEKIIDQVYRTQPCSCWPKPDSVVLEWRPGSTAQILSDLDLTSQREGRWKRINTLMHYNVRDGATLILSKV
